Assay results: PubChem BioAssay AID485298 (National Center for Advancing Translational Sciences (NCATS), 2010)
In all, about 320,000 compounds went through this assay and about 740 (0.23%) were called active. The inconclusive results got no clear call from the source; some entries with a clear call stand among them for comparison. The call rests on the fitted dose curve; in most records, active means well fitted activation curve with a large enough effect; inconclusive means small, poorly fitted or top-dose-only effect; inactive means no such curve, though single readings can be large or run the other way. A potency beside an inconclusive call is a rough fit, not a confirmed value.
Potency means the concentration at half of the fitted maximal effect.

Assay: qHTS Assay for Small Molecule Inhibitors of Mitochondrial Division or Activators of Mitochondrial Fusion; further: nearly all actives have a fitted effect of over 45% in size;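 on growth rescue (activation): temperature-sensitive fusion mutants such as fzo1-1 at 37 °C on non-fermentable ethanol glycerol medium; % of control where 0% means no effect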
Settings: S. cerevisiae fusion-defective mutant growth rescue, CellTiterGlo 48 h; growth rescue (activation): at 46.1 µM (top of the series) unless noted
Outline: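 Luminescent cell viability in 1536-well qHTS format served as the measure of rescued growth in ts fusion-mutant S. cerevisiae cultured on non-fermentable YPEG for 48 hours at 37C.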
With CC(C)Sc1nc2sc3c(c2c2nnc(SCC(=O)NCc4ccco4)n12)CCCC3 the “growth rescue (activation)” value was inactive: 10%.
With Cc1ccc(-c2nc3cccnc3o2)cc1NC(=O)COc1ccc(C(C)(C)C)cc1 the Potency was inconclusive: 28.2 µM [activator, single point].
With O=C(C1CCN(CCCc2ccccc2)CC1)N(CCc1ccccc1)Cc1ccccc1 the Potency was inconclusive: 2.82 µM [activator, full curve, poor fit].
With O=C(Nc1ccc2oc(-c3ccncc3)nc2c1)c1ccc([N+](=O)[O-])o1 the “growth rescue (activation)” value was inactive: -17.1%.
In the case of Cc1ccc(-c2cc(C(=O)N/N=C/c3ccoc3)c3ccccc3n2)cc1, the “growth rescue (activation)” value is reported as inactive: -1.95%.
With Cc1ccc(-n2c(O)c(C=Nc3cc(C)on3)c3ccccc3c2=O)c(C)c1 the Potency was inconclusive: 11.2 µM [activator, partial curve].
With CCN(C(=O)CSc1nc2n[nH]c(C)c2c(=N)n1-c1ccc(Cl)c(C)c1)c1cccc(C)c1 the “growth rescue (activation)” value was inactive: -8.67%.
With O=C(NC1=NCCS1)C1Cc2ccccc2CN1C(=O)c1ccccc1 (stereo unspecified) the Potency was inconclusive: 12.6 µM [activator, partial curve].
For Nc1c(Cl)cc(C2=NCCn3nc4cc([N+](=O)[O-])ccc4c32)cc1Cl, the Potency was inconclusive: 12.6 µM [activator, single point].
With CC1CCN(C(=O)CCNS(=O)(=O)c2ccc(Br)cc2)CC1 the Potency was inconclusive: 6.31 µM [activator, single point].
For CS(=O)(=O)NN1C(=O)c2ccccc2NC1c1ccccc1O (stereo unspecified), the Potency was inconclusive: 10 µM [activator, partial curve].
For CCN(Cc1ccc2c(c1)OCO2)C(=O)CSc1nc(C)nc2sc(C)c(C)c12, the Potency was inconclusive: 12.6 µM [activator, single point].
In the case of COc1cccc(NC(=O)c2cccc(C(=O)Nc3cccc(OC)c3)n2)c1, the “growth rescue (activation)” value is reported as inactive: 0.161%.
In the case of COc1ccc(N2C(=O)C3CCCN3C2c2ccc(C)o2)cc1 (stereo unspecified), the “growth rescue (activation)” value is reported as inactive: -5.68%.
With Cc1ccc(-c2csc3nnc(SCC(=O)N4CCN(Cc5ccccc5)CC4)n23)cc1 the “growth rescue (activation)” value was inactive: 7.58%.
With ClC1(Cl)CC1CSc1nc2ccccc2[nH]1 (stereo unspecified) the Potency was inconclusive: 15.8 µM [activator, partial curve].
With O=C(Cc1ccccc1)NCC(=O)N/N=C/c1ccc([N+](=O)[O-])s1 the “growth rescue (activation)” value was inactive: 9.59%.
With CCOc1ccc(NC(=O)c2cc(C3CC3)nc3c2cnn3C(C)C)cc1OC the Potency was inconclusive: 17.8 µM [activator, single point].
In the case of O=C(NC1CCN(Cc2ccccc2)CC1)C12CC3CC(CC(C3)C1)C2, the Potency is reported as inconclusive: 7.94 µM [activator, partial curve].
For O=S(=O)(c1cccs1)N1CCN(CC(O)COc2cc(Cl)ccc2Cl)CC1 (stereo unspecified), the Potency was inconclusive: 20 µM [activator, partial curve].
For C=C(C)CNC(=S)N/N=C/C1=CCC2CC1C2(C)C (stereo unspecified), the Potency was inconclusive: 35.5 µM [activator, single point].
With CCOC(=O)c1cnc(-n2nc(C)cc2C)nc1Nc1ccccc1OC the “growth rescue (activation)” value was inactive: -4.19%.
In the case of O=[N+]([O-])c1ccc(C(=S)N2CCC(Cc3ccccc3)CC2)cc1, the Potency is reported as inconclusive: 12.6 µM [activator, partial curve].
With CCOC(=O)c1oc2ccccc2c1NC(=O)c1cccc(OC)c1OC the Potency was inconclusive: 22.4 µM [activator, single point].
With OCC1O[C@H](O)C(Cl)C(O)C1O (stereo partly specified) the Potency was inconclusive: 14.6 µM [activator, partial curve].
In the case of N#Cc1ccc(S(=O)(=O)NCC(=O)OCC(=O)N2CCCC2=O)cc1, the “growth rescue (activation)” value is reported as inactive: -3.75%.
With CCOCCCn1c(=S)[nH]c2cc(C(=O)NCC(OC)OC)ccc2c1=O the Potency was inconclusive: 10 µM [activator, partial curve].
For C/C(=N/NC(=O)CNC(=O)c1ccccc1)c1ccc(C)cc1, the Potency was inconclusive: 12.6 µM [activator, partial curve].
For Cc1ccc(Cl)cc1Nc1nc(N2CCOCC2)nc(N2CCOCC2)n1, the Potency was inconclusive: 11.2 µM [activator, partial curve].
For COc1ccc(NC(=O)Cn2cnc3ccccc3c2=O)cc1OC, the Potency was inconclusive: 5.62 µM [activator, single point].
With O=c1c(-c2ccccc2)c(O)c2ccccc2n1-c1ccccc1 the Potency was inconclusive: 35.5 µM [activator, partial curve].
For Cc1nc2c(ccc3nc(NC(=O)Cc4cccc5ccccc45)sc32)s1, the Potency was active: 11.2 µM.
For Cc1ccc2c(Cl)c(C)c(N3CCCCC3)nc2n1, the Potency was inconclusive: 12.6 µM [activator, partial curve].
For Cc1ccc2nc(CCl)[n+]([O-])c(-c3ccccc3)c2c1, the “growth rescue (activation)” value was inactive: -2.55%.
With O=C(NC(Cc1ccccc1)C(=O)O)C1CCN(S(=O)(=O)c2ccccc2C(F)(F)F)CC1 (stereo unspecified) the Potency was inconclusive: 6.31 µM [activator, single point].
With COCCNc1c2c(nc3c(-c4ccccc4)c(C)nn13)CCC2 the “growth rescue (activation)” value was inactive: 11.8%.
With COc1cc(Cl)cc2c1Sc1ccccc1/C2=C/CCN(C)C the Potency was inconclusive: 35.5 µM [activator, single point].
With CC(=O)Nc1cccc(S(C)(=O)=O)c1 the “growth rescue (activation)” value was inactive: -7.89%.
With Cc1ccccc1OCc1nnc(SCC(=O)Nc2c(C)n(C)n(-c3ccccc3)c2=O)n1-c1ccccc1 the Potency was inconclusive: 5.62 µM [activator, single point].
For O=C(c1ccco1)N1N=C(c2ccc(Br)cc2)CC1(O)C(F)(F)F (stereo unspecified), the “growth rescue (activation)” value was inactive: 3.91%.
For O=S1(=O)C=C(Sc2nnc(-c3ccccc3)o2)c2ccccc21, the “growth rescue (activation)” value was inactive: -3.15%.
With COc1cccc(C(=O)Nc2sc(C(C)C)cc2C(N)=O)c1OC the Potency was inconclusive: 20 µM [activator, partial curve].
In the case of Cn1c(NC(=O)c2ccccc2NC(=O)C(C)(C)C)nc2ccccc21, the Potency is reported as inconclusive: 15.8 µM [activator, single point].
With COc1ccc(NC(=O)c2ccc(Cl)c(S(=O)(=O)N3CCc4ccccc4C3)c2)cn1 the Potency was inconclusive: 35.5 µM [activator, single point].
With C[C@H](NC(=O)c1nc[nH]c1C(=O)N[C@@H](Cc1ccccc1)C(=O)OCc1ccccc1)C(=O)OC(C)(C)C the “growth rescue (activation)” value was inactive: -4.01%.
For O=C1CN(C(=O)c2ccc(Br)o2)C(c2ccccc2)c2cc(Br)ccc2N1 (stereo unspecified), the Potency was inconclusive: 35.5 µM [activator, single point].
With O=C(O)c1ccc(S(=O)(=O)/N=C2\C=C(Nc3ccccc3F)C(=O)c3ccccc32)cc1 the “growth rescue (activation)” value was inactive: -60.6%.
With Cc1ccc2[nH]c3nc(SCC#N)nnc3c2c1 the Potency was inconclusive: 5.01 µM [activator, partial curve].
With COc1cc(NS(C)(=O)=O)ccc1Nc1c2ccccc2nc2ccccc12 the Potency was inconclusive: 18.4 µM [activator, single point].
With S=C(NCc1ccc(Cl)cc1)Nc1ccc(Cl)cc1Cl the “growth rescue (activation)” value was inactive: -5.21%.
For CC(=O)Nc1ccc(Sc2ncnc3scc(-c4ccccc4)c23)cc1, the Potency was inconclusive: 1.12 µM [activator, full curve, poor fit].
In the case of O=C(Nc1ccc(C(=O)N2CCCCC2)cc1)c1ccc(Br)cc1, the “growth rescue (activation)” value is reported as inactive: 4.59%.
With COc1cn(-c2ccccc2)nc1C(=O)Nc1ccc(C)cc1 the Potency was inconclusive: 7.08 µM [activator, partial curve].
With CCOc1cc(/C=N/O)ccc1OCC(=O)Nc1cccc(C)c1 the Potency was inconclusive: 35.5 µM [activator, single point].
In the case of CC(Sc1nc(-c2ccc(F)cc2)cs1)C(=O)N1c2ccccc2CC1C (stereo unspecified), the “growth rescue (activation)” value is reported as inactive: 11.3%.
With CC(=O)Nc1cccc(C(=O)/C=C/c2ccc(/C=C/C(=O)c3cccc(NC(C)=O)c3)cc2)c1 the “growth rescue (activation)” value was inactive: -4.55%.
For Cc1cccc(/C=C2/Sc3ccc(C(=O)NCCCN4CCOCC4)cc3NC2=O)c1, the Potency was inconclusive: 35.5 µM [activator, partial curve, poor fit].
With COc1ccc(Nc2cc(O)c3ncccc3c2)cc1 the Potency was inconclusive: 15.8 µM [activator, single point].
With CC(C)Cc1csc(NC(=O)c2ccc(F)cc2)c1C(=O)O the Potency was inconclusive: 8.91 µM [activator, partial curve].
With CC1CN=C2C(C(=O)Nc3ccccc3)=C(O)CC(c3ccccc3)N21 (stereo unspecified) the Potency was inconclusive: 14.1 µM [activator, partial curve].
In the case of O=C(NCc1ccco1)c1cnn2c(C(F)(F)F)cc(-c3ccccc3)nc12, the Potency is reported as inconclusive: 5.62 µM [activator, full curve, poor fit].
For Brc1ccc(CSc2nnc(Cc3c[nH]c4ccccc34)o2)cc1, the “growth rescue (activation)” value was inactive: 9.69%.
With CCn1c(CNc2ccc(Cl)cc2)nnc1SCc1ccc(Cl)cc1 the Potency was inconclusive: 22.4 µM [activator, single point].
In the case of CC(C)C(C(=O)Nc1nccs1)c1ccc(Cl)cc1 (stereo unspecified), the Potency is reported as inconclusive: 35.5 µM [activator, single point].
With Nc1ccc(C(=O)N/N=C/c2cn(Cc3ccccc3F)c3ccccc23)cc1 the “growth rescue (activation)” value was inactive: -2.96%.
For CS(=O)(=O)c1cccc(C(=O)Nc2nnc(C3=COCCO3)o2)c1, the “growth rescue (activation)” value was inactive: 3.58%.
With CC(C(=O)NC1C=CS(=O)(=O)C1)N1C(=O)/C(=C/c2cccc(Cl)c2)SC1=S (stereo unspecified) the Potency was inconclusive: 15.8 µM [activator, partial curve, poor fit].
In the case of Cc1cc(C)nc(NC(=O)C(c2ccccc2)c2ccccc2)c1, the Potency is reported as inconclusive: 22.4 µM [activator, single point].
For CC(C)c1ccc(NS(=O)(=O)c2ccc(Cl)nc2)cc1, the Potency was inconclusive: 35.5 µM [activator, single point].
For Cc1cc(NC(=O)Cn2nc(C(=O)O)c3ccccc3c2=O)c([N+](=O)[O-])cc1C, the “growth rescue (activation)” value was inactive: -2.95%.
In the case of COc1ccc(-c2nc(-c3ccc4c(c3)OCO4)[nH]c2-c2ccc(OC)cc2)cc1, the Potency is reported as inconclusive: 35.5 µM [activator, single point].
